The source of these data is patent publication US6617425B1 (Novartis AG, priority 1996, dated 2003).

The nature of data set [1]: general procedure: Fmoc solid-phase peptide synthesis; ortho-chloro-trityl chloride resin; EDC/HOBt/NMM (solution-phase examples). As to conditions: for crude yield: whole synthesis, scale of the general procedure 150 mg resin (1.05 mmol Cl-/g).
Data set [2] in a line: Fmoc solid-phase peptide synthesis; ortho-chloro-trityl chloride resin; EDC/HOBt/NMM (solution-phase examples). As to conditions: whole synthesis.

On to “Benzyl N-[(tert-Butoxy)carbonyl]-(R)-aminomethylvalyl-(R)-aminomethylalanyl-(R)aminomethylleucyl-(R)-aminomethylvalyl-(R)-aminomethyl alanyl-(R)-aminomethyl leucinate”, for which the step yield in data set [1] (coupling step) is recorded as 69%.

In data set [1], “H-β^3-HVal-β^3-HAla-β^3-HLeu-β^3-HPhe-β^3-HVal-β^3-HAla-β^3-HLeu-OH” registered a crude yield of 89%. This substance also registered a crude mass in data set [2] of 68 mg.

In turn, “(R)-Aminomethylvalyl-(R)-aminomethylalanyl-(R)-aminomethylleucyl-(R)-aminomethylvalyl-(R)-aminomethylalanyl-(R)-aminomethylleucinate Trifluoroacetate” gave a step yield in data set [1] (late stage modification step, Trifluoroacetate) of 96%.

On to “H-β^2-HVal-β^2-HAla-β^2-HLeu-β^2-HPhe-β^2-HVal-β^2-HAla-β^2-HLeu-OH”, for which the crude yield in data set [1] came out at 79%. In data set [2], this substance came in with a crude mass of 60 mg.
